Laboratory results reported in patent publication US4192875 (dated 1980).

Experiment: solution-phase peptide synthesis; diphenylphosphorylazide
Settings: whole synthesis

With “cyclo-[(L-1-Carboxymethyl-3-amino-2-piperidone)yl]3” the isolated mass was 1.02 g and the isolated yield (scale of the general procedure 25.6 mmole) was 26%.
